According to article PMC7670052:

Experiments:
Test in all cases: EMSA
ScyR3 = target: T1, ScyR3 (UniProt A0A0C5FQ08); conditions: EMSA as in Li C. et al., 2019 (buffer, pH and temperature not given); 10 ng DNA probe per lane; one lane with 100-fold poly(dI-dC); recombinant protein; residues 1-210; protein details: His6 (C-terminal, pET-23b NdeI/XhoI); probe letters rebuilt from the primers and the genome
T1 sequence (looked up): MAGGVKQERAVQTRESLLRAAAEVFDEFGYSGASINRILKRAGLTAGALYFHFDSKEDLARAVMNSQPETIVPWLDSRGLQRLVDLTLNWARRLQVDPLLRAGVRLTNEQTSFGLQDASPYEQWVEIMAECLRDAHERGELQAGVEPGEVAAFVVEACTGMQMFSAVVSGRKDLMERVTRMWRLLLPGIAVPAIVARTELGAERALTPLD

ScyR2 = test system: T2, ScyR2; conditions: EMSA as in Li C. et al., 2019 (buffer, pH and temperature not given); 10 ng DNA probe per lane; one lane with 100-fold poly(dI-dC); recombinant protein; protein details: GST (N-terminal, pGEX-4T-1 EcoRI/XhoI); probe letters rebuilt from the primers and the genome
T2 sequence (looked up, limits assumed): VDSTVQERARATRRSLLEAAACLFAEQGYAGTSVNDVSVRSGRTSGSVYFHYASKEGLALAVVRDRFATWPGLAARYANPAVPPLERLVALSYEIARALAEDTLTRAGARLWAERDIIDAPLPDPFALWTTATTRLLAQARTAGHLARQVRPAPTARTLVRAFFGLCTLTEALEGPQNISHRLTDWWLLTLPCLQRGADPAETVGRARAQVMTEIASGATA

ScyR1 = test system: T3, ScyR1; conditions: EMSA as in Li C. et al., 2019 (buffer, pH and temperature not given); 10 ng DNA probe per lane; one lane with 100-fold poly(dI-dC); recombinant protein; residues 1-233; protein details: His6 (C-terminal, pET-23b NdeI/XhoI); probe letters rebuilt from the primers and the genome
T3 sequence (looked up): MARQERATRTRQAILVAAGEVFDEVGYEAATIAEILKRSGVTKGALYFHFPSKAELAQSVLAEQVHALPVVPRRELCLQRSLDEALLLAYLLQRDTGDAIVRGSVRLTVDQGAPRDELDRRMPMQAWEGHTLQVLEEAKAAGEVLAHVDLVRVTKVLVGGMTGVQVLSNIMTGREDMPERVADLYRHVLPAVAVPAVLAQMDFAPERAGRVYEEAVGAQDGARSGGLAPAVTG

Measured: binding result

CCAGTTCGGCGGTCGCCTCCGCGCCGGGCCCGTCCCGGTCCACACACACCAGCCGCGCCCCGGCGGCACCGAACCGGCAGGCCGTCGCCCGCCCGATGCCGCTCCCCGCCCCCGTGACCAGGACCAGCCGGTCCTCGAAACGCTTCGCGTAACGATCCATGCCTGCGGCTCTTCCCCCTATTTGAACGGGTATTCGCTTCACGTAGCCAGTCTGGGGTGTATAGGGGGTATTCGGGTTGACTTGCCCACCCTAATCTGGCGGGGTTCCGTGCCACCTCCAGCGCAGCGGCGAGGAGACCCCGTCATGGCCAACGAGGAAATGCTCCGCGAGTACCTCAAGCGCGCGACCGCCGATCTGCTGCGGGTCCGGCGCCGGCTGGAGCAGGTCGAGTCGGGCAGGCAGGAGCCGGTCGCGATCGTGGGCATGGCGTGCCGGTTCCCGGGAGGTGTGCGATCGCCCGAGGACCTGTGGGAGCTGGTCG (double strand) [PnemA4 (nemA4/A3/E/D promoter)]
no binding: all assays above

CGACGGACCAGTCGAGGTACGGGGCGAGCGCGTCGGCGCAGGCGCGCACACTCTCGCGGAACACCGGGGAGGTGTCCCACAGTTCCGCACCCATCCCCGGCCACTGAGACCCCTGTCCGGGGAAGACGAAGACCACTGCGTCCGCGGACCCGTCGGACGACCCTTCCTCGCCGTGCGCGTGTGTCTCGTGCACTTGTCGTCTCCTCACCGCTCGGCAGGGATGGGCGGCCGCATCGCAGGGCGAAAGTCGCCGCAGGTATTTCGAGGCAGGGGACAGCCCGGCATGGAGAGGACTTTCGCCGCCGGCCGCGCGCCGGAGTCGTGTTTCAAAATAGTGATCGCCCGACGGTCCTGGTACCCCCTATCCACCCCAGGGGTATTCGGCCGATCTTCTTGCTCCCCCTACGAGTTCCGGGTGCGGAAATCGATCGCATTCCCGCCCTCCCGTGTGTCGCCTGGACTCTGGCACAGTAATCGGTGAGGTCGCGACCTCACGCGTGGCCGGGGTGCGGATCTGGCCTCGGGTCCGACCCCATGCATCAAGAGGAAAAGTAAGATAATCGGCAGAAGGGGATTCGGGATGCCGGAATTGAACGACAGGACGGCCTTGGTCACGGGTGCCTCGCGCGGCATCGGAAAAGCCATCGCCCAGCGACTCGCCGCCGAGGGCGTCCGGGTCGCCGTGCACTACGGAACGCAGGAAA (double strand) [PnemA1-1 (nemA1-1/A1-2/A2 promoter)]
no binding: all assays above

CGGTCCTGTCGTCCGGGGTACTGGACCGCCAGGACCTCGATGCCGGGGGCGAGGGACCGGGCCAGGCGCAGATAGGCGCTGGCGGACCCGCCCGCGTGCGGGAAGCACATGAGCCGCGTCCGGGCCGCGGGAGCCGGCTGGAACCGCCGGAGCCAGAGGGATTCGGTCTCGCAAAGGTCGGGCATCGCTCGTCCTCTCCTTAAGTGCGATTATCGCAACACGCGTGTCCGCGTGACCTCGCGAATGGCTCGCCGTCCCGCGGAGGCTGCCCAACCTCCCGGCCGCCCATTCCGAGGACTCTCCACACGCTCGAAAGGGTGAGCGAAATAACGTAAATTCACGGGTTCGTATCAACTCGGCCACCACGCTTGCTCATTGGCTCATTCTCGTATCGGGGTGCGCGTGTGGCGGCTTCGGGAGAGGGGCAGTATCTCGTCGACTTGTGGGCTTTCCTGTTGGTACGAATCCGTAAAGCCCCCGGTCTTCGGGGGAGGGAGTCAGAGGGAGATTATGCGGGGCGTTTCCCCTTCGGTGTCCGTGCGGGAGCCGCAAGGGCTCACGTTCCTCGGCCTGGGCAGGCAGTCCCATGCCGTGAGAACGGCGCTCGAGGCGTGCGCCGCCGGCCGGGTGCGGGTGCTGGTCGTCGAAGGAGGACTCGGCTGCGGGAAAAGCGCGTTCCTGGGGGAGGCGCTCAAGCACGCGGCGGCATC (double strand) [PnemR (nemR promoter)]
no binding: all assays above

GCGGTGGGCGAGAAGGAGCTGCGCGGGCTCTTGACGTCGATCCCGATCGGCCGGCTGCGGGAGGCGGGGCTGATCGACCGCCTCCTGGCGCTCGCCGCTGCGGCGCCAGACTCCGCCGATCAGACGGCGGAGCAGCCCTCCCGGTCCGTGTCGGTCGAGGACATCGACGCCATGGACGTCGACAGCCTCATCGGCCTGGCCCACGACACCGGCACCGACTCCGGTCACGCCCCCTGCAGGGCTGACCTCCACTTCACGGATGCGAGAGACGACATGACGCAGATTCCGCCAACCGGTCACGACGCCGTGGCAGCCGGGCCCGCCCCCGGCGCCGCGGAACAGAAACGAGGACGGAAACGGAAACCAGGACGGGAGCCCCGGCCAGAGCATCGACGGGAACAGGAACGAGGGCAGGGAGCAGGGCTGGGGCAGGGGCAGGAACGCGCGCGGCCCGCGGACGGTGGTCGGCGGCTCGTGCTTGGCTGGGCGGCGCTCGGCGCGGTGTGCCTGGCCCTGCAGGCGTACGTGCTCGTCCGCTGGGCGGCCGACGGTGGGTATCGCCTGGTGGACGTACCCGGTGAGGGCGGCGCGGAGCGTGGCCACCGAAGGGTCCTCGACATCGTGTTCCCGGCGCTGTCGGCGGCAGGTGTCGTGGGGCTGGCGCTGTGGCTCTACCGCAGGTGC (double strand) [PnemC (nemC promoter)]
no binding: all assays above

Negatives hold for the conditions tested. Where a protein sequence is shown, tags need not be part of it. For part of these data: For at least one entry, the source does not settle the construct or the ends of the probe.
